Experimental data reported in the supplement of paper PMC3334620.
Over roughly 33,000 sequences, “E-score (-0.5 to 0.5)” has its median near -0.016; the highest 2% begin near 0.3. The list shows a part of the results.

Each sequence was assayed against T1, Yer184c (UniProt P39961) (assay: PBM E-score (8-mer binding enrichment) (E-score (-0.5 to 0.5)); higher = stronger / more preferred TF binding). Details: protein concentration: 100 nM; construct: GST-full length.
T1 sequence: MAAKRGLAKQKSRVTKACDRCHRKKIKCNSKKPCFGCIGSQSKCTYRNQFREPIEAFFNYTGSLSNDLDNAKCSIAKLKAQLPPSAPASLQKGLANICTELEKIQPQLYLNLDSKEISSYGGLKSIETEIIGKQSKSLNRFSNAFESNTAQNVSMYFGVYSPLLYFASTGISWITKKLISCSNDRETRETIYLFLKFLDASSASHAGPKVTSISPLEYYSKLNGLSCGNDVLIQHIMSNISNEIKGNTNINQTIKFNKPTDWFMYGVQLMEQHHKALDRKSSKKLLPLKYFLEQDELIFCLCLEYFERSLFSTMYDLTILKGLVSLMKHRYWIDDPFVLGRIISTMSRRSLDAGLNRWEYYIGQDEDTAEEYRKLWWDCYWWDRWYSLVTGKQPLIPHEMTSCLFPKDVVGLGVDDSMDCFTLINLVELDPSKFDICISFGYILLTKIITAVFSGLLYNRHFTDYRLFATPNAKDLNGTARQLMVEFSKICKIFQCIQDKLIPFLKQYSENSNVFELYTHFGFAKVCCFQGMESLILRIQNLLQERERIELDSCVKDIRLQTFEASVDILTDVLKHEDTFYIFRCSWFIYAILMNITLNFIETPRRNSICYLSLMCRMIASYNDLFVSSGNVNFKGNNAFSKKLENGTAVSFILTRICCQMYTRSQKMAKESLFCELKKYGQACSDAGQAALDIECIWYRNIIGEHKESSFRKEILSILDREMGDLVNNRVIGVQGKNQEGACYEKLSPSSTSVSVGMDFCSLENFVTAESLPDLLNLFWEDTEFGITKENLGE
Procedure, shortened: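 PURExpress in vitro transcription/translation supplied GST-tagged yeast transcription factors, either full-length or DNA-binding domain. Applied at about 100-200 nM to universal all-10-mer Agilent arrays double-stranded by primer extension, the bound protein was detected with fluorescent anti-GST. E-scores, modified Wilcoxon-Mann-Whitney statistics, were given by the Universal PBM Analysis Suite to ungapped eight-base words pooled with their reverse complements after masliner normalisation.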

| Sequence | PBM E-score |
| --- | --- |
| ATGGCAAT | -0.0949 |
| CTAGCTAC | -0.237 |
| AAGAGGAG | -0.115 |
| ATACCTAG | -0.0735 |
| AGTGTGTA | -0.101 |
| GAGTTATC | 0.182 |
| CACCTTTA | -0.0458 |
| GATTCAAA | 0.052 |
| CATCCCAC | -0.2 |
| GATAGTGC | -0.105 |
| ACTAATGG | -0.0197 |
| ACGCCCCG | -0.006 |
| CCTGACAC | -0.0732 |
| CGGCGCCA | 0.162 |
| CAGAGCCG | 0.238 |
| AATCATGA | 0.188 |
| CCTGCTCC | 0.00079 |
| AGTTTGGC | -0.0507 |
| TCAAGACA | -0.0118 |
| CCAAGTCA | -0.153 |
| AATAAAAG | 0.0204 |
| AAAAACTT | 0.172 |
| CAGATTCG | 0.0724 |
| ACCAGATG | -0.251 |
| CCAGACCC | -0.262 |

Some values from the entries so far.
CCTGACAC – PBM E-score: -0.0732
ACCAGATG – PBM E-score: -0.251
AAAAACTT – PBM E-score: 0.172
AGTGTGTA – PBM E-score: -0.101
AATAAAAG – PBM E-score: 0.0204

Next part

| Sequence | PBM E-score |
| --- | --- |
| CCGAGGGA | 0.0207 |
| CGGGCCCC | 0.031 |
| AGGCGCCA | -0.181 |
| GGTGACAC | -0.104 |
| GGGACTCA | -0.228 |
| TCGCACGA | -0.0395 |
| GCTTCATA | -0.0263 |
| CACACGGG | -0.117 |
| AAGCAAAA | 0.121 |
| CTGTGGGA | -0.307 |
| GCGATAGC | -0.0771 |
| TAGAGAAA | 0.122 |
| CTAATTTC | 0.202 |
| CAAATACA | -0.0425 |
| CAAACAGG | -0.143 |
| CAGCGGGC | -0.0514 |
| CCGCCCCC | -0.145 |
| AATACAAG | 0.0699 |
| CAGCTCCA | -0.224 |
| CTCGAAAC | 0.175 |
| GGGTTAAA | -0.0167 |
| AATGGAGC | -0.052 |
| GGTCCGAC | 0.153 |
| CAGTTTCG | 0.0474 |
| CTTCTGTA | 0.09 |

| Sequence | PBM E-score |
| --- | --- |
| GCGACCGA | 0.217 |
| AACTTCCC | -0.15 |
| ATGCTTGG | -0.131 |
| CTACGAGA | -0.111 |
| ATCGATCC | -0.119 |
| CATGCGCG | -0.0219 |
| AAGAAGTC | -0.0114 |
| ATTTTTCA | 0.169 |
| AGAAGAGA | -0.0452 |
| CCTCCCCG | -0.0343 |
| TAACCGCA | 0.127 |
| CGATCAAA | 0.0288 |
| AGGAATTA | 0.0841 |
| ATTTCCTC | 0.127 |
| CATAGCGG | -0.132 |
| AACTCGTA | 0.0532 |
| CGCTCTGC | 0.016 |
| AAGTTTGC | -0.0135 |
| CGAGAAAG | 0.105 |
| CGAGCAGA | -0.0763 |
| AACGCACA | -0.00084 |
| ATCATGGA | -0.209 |
| ATTTTCAG | 0.157 |
| TCGACAAA | 0.147 |
| GCTAGCCC | -0.292 |

| Sequence | PBM E-score |
| --- | --- |
| ATCCTCTA | -0.0816 |
| GGTAAGAA | -0.112 |
| AGTAATGC | -0.00589 |
| AACCGAGA | 0.229 |
| CACGCGGG | -0.0142 |
| CGAGGCTC | -0.0916 |
| GTAAACCA | -0.0788 |
| CTAGCGGA | -0.103 |
| ATTCGTAG | 0.107 |
| CTCCCCAC | -0.225 |
| ACCTTACG | 0.00591 |
| GGATATTA | 0.132 |
| AGATGCAT | -0.0415 |
| CAACTCAG | -0.0621 |
| ATAGCTTA | 0.153 |
| AACGTCGG | -0.0362 |
| CATGATGC | -0.0869 |
| ATGGCTAG | -0.166 |
| AGGAGACC | -0.273 |
| GCAGCCCC | -0.173 |
| ATGGCGCG | -0.0179 |
| CGTGTGCC | -0.131 |
| CCGTGCGC | 0.145 |
| ATCCAGAG | 0.0238 |
| GTGCAAAA | -0.00401 |

| Sequence | PBM E-score |
| --- | --- |
| AGTCAGCG | -0.269 |
| GAACCACC | -0.0106 |
| TCCCCTAA | -0.202 |
| TCGCAAGA | -0.0555 |
| CTTGACGC | -0.0637 |
| GTCGGAGA | 0.158 |
| ACTGCTGC | -0.138 |
| CACCCAAA | -0.0529 |
| CTGCGTAA | -0.0554 |
| ACCAATAA | 0.0431 |
| CTTTTGCA | 0.109 |
| CCATAGGA | -0.197 |
| TCCAGGAA | -0.0611 |
| AAATTCAG | 0.00208 |
| AGCCGAAT | 0.392 |
| ACGTATTC | 0.109 |
| AACGCTGG | -0.166 |
| CCTTATCG | 0.121 |
| GCTTCGCC | -0.208 |
| AGGTACGC | -0.0351 |
| ACCAGCTG | -0.116 |
| ACTTGCGG | -0.042 |
| TACGTACA | 0.0341 |
| AAGTCAGG | -0.0442 |
| CATATCAA | 0.21 |

Not a retest: entries from further up.

| Sequence | PBM E-score |
| --- | --- |
| CCATAGGA | -0.197 |
| TCCAGGAA | -0.0611 |
| AAATTCAG | 0.00208 |
| AGCCGAAT | 0.392 |
| ACGTATTC | 0.109 |

Carrying on:

| Sequence | PBM E-score |
| --- | --- |
| GGCCCCAA | -0.222 |
| CGCTAGGC | -0.193 |
| AAGATAGA | -0.0904 |
| CAGGTATA | -0.163 |
| ACGCATAC | 0.0179 |
| ACCGTCGC | 0.103 |
| ACATGACT | -0.263 |
| CGCAGTCA | -0.264 |
| ACCTGTGG | -0.255 |
| CTATTGCA | 0.134 |
| ACGGCTGC | 0.0869 |
| CTCAGGAG | -0.147 |
| CAGACTAG | -0.219 |
| CACCAGTG | -0.127 |
| CCATCGAA | -0.0913 |
| CGCTGGAC | -0.187 |
| AGTTTCAC | 0.0489 |
| CAGTTGGG | -0.103 |
| ATAATCGA | 0.0906 |
| ACTTCCGC | 0.166 |
| AGAGTGGG | -0.157 |
| CAGTTCCC | 0.109 |
| ACATTAAT | 0.164 |
| CTTCAATC | 0.137 |
| CGGAGGGC | -0.0123 |

| Sequence | PBM E-score |
| --- | --- |
| CCGTTGGA | -0.096 |
| AGAGAGAG | -0.267 |
| AACCTAGC | -0.0338 |
| GATTGTCA | 0.0895 |
| ATAACCCA | 0.0142 |
| TCCGACGA | 0.209 |
| CAATTCCC | 0.178 |
| CATTGCAC | -0.0423 |
| TGCGTCAA | -0.0778 |
| AGCTGTTA | -0.091 |
| GTACAAGA | -0.0433 |
| AGAACCCT | -0.127 |
| CAAATAGA | 0.094 |
| CTCCTAGA | -0.097 |
| ATTGAGCA | -0.0211 |
| AAGCTGTA | 0.0855 |
| AAAATGAC | 0.114 |
| ACCCTCGA | -0.211 |
| CGTACCAA | 0.116 |
| CTCTGTGA | 0.0767 |
| ACCACGAA | -0.0436 |
| ACGTGATG | -0.188 |
